No constants are given. Whether binding was seen depends on the method and setting. In cells and extracts the contact can be indirect. Some results given as binding are weak or reduced against the parent protein; the word gives no strength.
Experiments:
[1] = biological target: tumor suppressor p53, Myc-tagged (UniProt P04637); assay: co-IP; cells cotransfected with myc-p53 and His-PER1, harvested 24 h after transfection, lysed in RIPA buffer; lysate incubated overnight at 4 °C with anti-myc or anti-His antibody, then 2 h with protein G- or protein A-Sepharose; Western blot with anti-His and anti-myc
[2] = biological target: period 1 (PER1), His-tagged (mouse (mPer1)) (UniProt O35973); assay: as above

Row | Substance | binding [1] | binding [2]
1 | period 1 (PER1), His-tagged (from UniProt O35973 1-1291) | binds | 
2 | tumor suppressor p53, Myc-tagged (from UniProt P04637 1-393) |  | binds

From publication PMC8001324
